Earlier results, collected in patent US7361683B2, “Paclitaxel aqueous injection solution and methods for preparing the same” (Yung Shin Pharm. Ind., Co., Ltd, priority 2004, dated 2008).

CC(=O)O[C@H]1C(=O)[C@@]2(C)[C@H]([C@H](OC(=O)c3ccccc3)[C@]3(O)C[C@H](OC(=O)[C@H](O)[C@@H](NC(=O)c4ccccc4)c4ccccc4)C(C)=C1C3(C)C)[C@]1(OC(C)=O)CO[C@@H]1C[C@@H]2O [Paclitaxel, 5β-20-Epoxy-1,2α,4,7β,10β,13α-hexahydroxytax-11-en-9-on,4,10 diacetate 2-benzate 13-ester with (2R,3S)-N-benzoyl-3-phenylisoserine]
solubility in water: less than 0.01 mg/mL
